Data from US20120172384A1, “HETEROCYCLYLAMINOPYRIMIDINES AS KINASE INHIBITORS” (priority 2009, published 2012).
Some results were stated once for a whole list of compounds, not compound by compound.

Molecular target: T1, JAK3 (Homo sapiens, UniProt P52333)
T1 construct: endogenous in cells
T1 sequence (P52333 1-1124): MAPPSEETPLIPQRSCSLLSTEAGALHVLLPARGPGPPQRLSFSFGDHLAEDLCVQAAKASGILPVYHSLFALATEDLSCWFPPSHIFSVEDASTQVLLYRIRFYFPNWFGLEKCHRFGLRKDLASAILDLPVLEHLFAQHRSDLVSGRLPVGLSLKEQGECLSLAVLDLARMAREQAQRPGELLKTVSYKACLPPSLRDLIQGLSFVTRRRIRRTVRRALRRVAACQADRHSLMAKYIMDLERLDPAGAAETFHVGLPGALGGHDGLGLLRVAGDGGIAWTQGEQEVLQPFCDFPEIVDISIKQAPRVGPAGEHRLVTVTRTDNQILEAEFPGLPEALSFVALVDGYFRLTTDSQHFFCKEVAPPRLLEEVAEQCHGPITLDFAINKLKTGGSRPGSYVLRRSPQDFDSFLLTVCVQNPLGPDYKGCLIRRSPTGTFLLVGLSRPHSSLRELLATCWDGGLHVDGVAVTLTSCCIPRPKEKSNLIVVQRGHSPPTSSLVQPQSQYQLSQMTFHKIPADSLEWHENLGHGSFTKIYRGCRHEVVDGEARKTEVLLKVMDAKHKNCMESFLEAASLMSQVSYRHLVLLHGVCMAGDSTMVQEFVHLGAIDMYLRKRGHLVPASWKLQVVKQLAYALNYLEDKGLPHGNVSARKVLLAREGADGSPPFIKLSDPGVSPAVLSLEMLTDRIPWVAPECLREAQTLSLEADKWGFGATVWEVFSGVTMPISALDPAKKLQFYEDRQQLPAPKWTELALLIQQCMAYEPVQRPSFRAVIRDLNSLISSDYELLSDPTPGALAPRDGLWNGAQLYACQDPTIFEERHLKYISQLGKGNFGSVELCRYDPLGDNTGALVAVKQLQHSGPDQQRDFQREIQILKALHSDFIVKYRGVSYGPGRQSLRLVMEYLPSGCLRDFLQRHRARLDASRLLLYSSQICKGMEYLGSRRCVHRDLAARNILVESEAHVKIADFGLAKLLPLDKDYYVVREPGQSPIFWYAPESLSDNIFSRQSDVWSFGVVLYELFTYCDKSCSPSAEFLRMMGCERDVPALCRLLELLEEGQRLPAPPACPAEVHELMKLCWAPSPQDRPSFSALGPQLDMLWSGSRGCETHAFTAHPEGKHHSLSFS
Assay: JAK3 kinobeads assay
Type: binding
Settings: cell lysate, dot blot with JAK3 specific antibody
Protocol: The compounds of the present invention as described in the previous examples were tested in the ZAP-70 kinobeads assay as described (EP-A 1862802 and WO-A 2007/137867). Briefly, test compounds (at various concentrations) and the affinity matrix with the immobilized aminopyrido-pyrimidine ligand 24 are added to cell lysate aliquots and allowed to bind to the proteins in the lysate sample. After the incubation time the beads with captured proteins are separated from the lysate. Bound proteins are then eluted and the presence ZAP-70 is detected and quantified using a specific antibody in a dot blot procedure and the Odyssey infrared detection system.
Compounds were tested by the procedure described in Example 102 but using a JAK3 specific antibody (Cell Signaling Technology, Inc., Danvers, US, catalogue number 3775) instead of a ZAP70 antibody.

Question: With “N-(2-((5-chloro-2-((1-(2,2-difluoroethyl)-1H-pyrazol-4-yl)amino)pyrimidin-4-yl)amino)phenyl)methanesulfonamide [Example 84]” as the substance, how does the IC50 read?
Answer: Its IC50 is no more than 0.1 µM.

Question: How did the IC50 turn out when “N-(2-((5-chloro-2-((1-ethyl-1H-pyrazol-3-yl)amino)pyrimidin-4-yl)amino)-6-fluorophenyl)methanesulfonamide [Example 90]” was run?
Answer: The IC50 was no more than 0.1 µM.
